Assay results published in US4621077A, “Pharmacologically active biphosphonates, process for the preparation thereof and pharmaceutical compositions therefrom” (Istituto Gentili S.p.A., priority 1982, dated 1986).
Several values for one entry are separate records, joined by “and”; a condition that tells them apart may be missing. Equal values may be shown once. Entries after “also recorded” stand apart in the source; their conditions may differ.

How the values were obtained:
in vivo = test: in vivo; design: species or system Swiss mice; conditions: mouse
Protocol: For this study Swiss mice, both male and female, have been utilized: during the experiment, the animals are fed according to the method with Altromin in the form of tablets. For the oral and intraperitoneal administration, there are used 5% gum arabic solutions while saline solutions of pH 4 are used for the intravenous injections.
The preliminary values of DL50 are calculated according to a graphic method. Table 1 reports the values of the DL50 in Swiss mice in mg/kg.

[1] = test system: bone reabsorption and mineralization (tibia, trabecular metaphysis); design: species or system Wistar rats; conditions: rat, in vivo
Protocol: Groups of five Wistar rats of weight 180-200 grams are treated for a period of seven days with 0.1, 1.0 and 10 mg of P/kg of the following biphosphonic acids:
The animals kept as a control were administered the solvent with NaCl. All the treatments were carried out by the subcutaneous route. […] The animals were fed with Altromine 1314 containing 1.1 g/100 g P and 250 IU/100 g of vitamin D3. On the eighth day, the animals were killed and the tibia was removed and fixed in 50% ethanol. The tibiae were then dehydrated in increasing concentration of ethanol and allowed to soak in methylmethacrylate after the addition of Plastoid N. Frontal sections were removed and cut to a thickness of 70-80 μm and then the sections were submitted to microradiography. This procedure permitted to evaluate the density of the mineral in the trabecular metaphysis according to the method of Shenk et al., Calc. Tiss. Res. 11, 196-214, 1973).
One animal per group has been evaluated.

[2] = test system: patients with primary hyperparathyroidism; conditions: simultaneous with decrease of calcemia
Protocol: The substance ABDP, aminobutanediphosphonate has been used for venous infusion, 0.5-25 mg/day dissolved in 500 cc of 5% glucose solution in the following conditions:
Eight individuals having different degrees of calcemia varying to the extent of 17-11 mg%, were treated.

[3] = test system: patients with Paget's disease; conditions: three patients, 4 mg or 0.5 mg per day, 8 and 21 days
Protocol: The substance ABDP, aminobutanediphosphonate has been used for venous infusion, 0.5-25 mg/day dissolved in 500 cc of 5% glucose solution in the following conditions: […]

[4] = test system: bone reabsorption (metaphyseal bone density); test: Metaphyseal bone density / inhibition of bone reabsorption in rats treated for 7 days; format: in vivo; conditions: for metaphysical density: 7 days, rats
injection sites / skin = test: Necrosis at the injection sites in rats (local skin toxicity)
Text: The symbol "x" represents a conventional score, that is "x" meand slight necrosis, "xx" means severe necrosis, "xxx" means very severe necrosis.

[5] = test system: inhibition of the bone reabsorption

SMILES: NCCCC(O)(P(=O)(O)O)P(=O)(O)O [AHBU BP, 4-amino-1-hydroxybutan-1,1-biphosphonic acid]
- LD50 (in vivo; iv): 85 mg/kg
- LD50 (in vivo; po): > 2000 mg/kg
- effect on bone reabsorption, in words [1]: active on the reabsorption with a result slightly superior to Cl2 MBP
- effect on mineralization, in words [1]: no effect or only a slight effect or only an effect to a very small extent; also recorded: does not induce or induces only to a very small extent the inhibition of mineralization at high dosage
- urinary excretion of calcium [2]: decrease of the values of the urinary excretion of calcium
- urinary excretion of hydroxyproline [3]: normalization of the urinary excretion of hydroxyproline
- metaphysical density ([4]; 0.01 mg P/kg s.c., s.c. NaCl controls 29.72): 48.96 % volume of calcified tissue
- metaphysical density ([4]; 0.1 mg P/kg s.c., s.c. NaCl controls 29.72): 58.17 % volume of calcified tissue
- metaphysical density ([4]; 1.0 mg P/kg s.c., s.c. NaCl controls 29.72): 60.00 % volume of calcified tissue
- metaphysical density ([4]; 2.0 mg P/kg p.o., p.o. NaCl controls 28.45): 43.80 % volume of calcified tissue
- activity on bone reabsorption / potency, in words ([4]; rat, in vivo, listed as 4-amino-1-hydroxybutylidene-1,1-bisphosphonate): This higher activity is also exhibited when the drug is administered orally; also recorded: the highest inhibitory activity on bone reabsorption
- necrosis at the injection sites (injection sites / skin; 0.01 mg P/kg, 1 day): .0.
- necrosis at the injection sites (injection sites / skin; 0.01 mg P/kg, 2 day): .0.
- necrosis at the injection sites (injection sites / skin; 0.01 mg P/kg, 3 day): .0.
- necrosis at the injection sites (injection sites / skin; 0.01 mg P/kg, 4 day): .0.
- necrosis at the injection sites (injection sites / skin; 0.01 mg P/kg, 5 day): .0.
- necrosis at the injection sites (injection sites / skin; 0.01 mg P/kg, 6 day): .0.
- necrosis at the injection sites (injection sites / skin; 0.01 mg P/kg, 7 day): .0.
- necrosis at the injection sites (injection sites / skin; 0.1 mg P/kg, 1 day): .0.
- necrosis at the injection sites (injection sites / skin; 0.1 mg P/kg, 2 day): .0.
- necrosis at the injection sites (injection sites / skin; 0.1 mg P/kg, 3 day): .0.
- necrosis at the injection sites (injection sites / skin; 0.1 mg P/kg, 4 day): .0.
- necrosis at the injection sites (injection sites / skin; 0.1 mg P/kg, 5 day): .0.
- necrosis at the injection sites (injection sites / skin; 0.1 mg P/kg, 6 day): .0.
- necrosis at the injection sites (injection sites / skin; 0.1 mg P/kg, 7 day): .0.
- necrosis at the injection sites (injection sites / skin; 1 mg P/kg, 1 day): .0.
- necrosis at the injection sites (injection sites / skin; 1 mg P/kg, 2 day): .0.
- necrosis at the injection sites (injection sites / skin; 1 mg P/kg, 3 day): .0.
- necrosis at the injection sites (injection sites / skin; 1 mg P/kg, 4 day): .0.
- necrosis at the injection sites (injection sites / skin; 1 mg P/kg, 5 day): xxx and .0.
- necrosis at the injection sites (injection sites / skin; 1 mg P/kg, 6 day): xxx
- necrosis at the injection sites (injection sites / skin; 10 mg P/kg, 2 day): xxx
- necrosis at the injection sites (injection sites / skin; 10 mg P/kg, 3 day): xxx
- local / topical skin toxicity, in words (injection sites / skin; rat, in vivo): a topical skin toxicity which is lower than that of the 3-amino-1-hydroxypropylidene-1,1-bisphosphonate
- clinical potency, in words ([5]; human, in vivo): the most powerful diphosphonate for clinical use
- tolerability of doses ([5]; patients): perfectly tolerated by the patients
